ChEMBL document CHEMBL2311325, “New structure-activity relationship studies in a series of N,N-bis(cyclohexanol)amine aryl esters as potent reversers of P-glycoprotein-mediated multidrug resistance (MDR)” (Bioorg Med Chem, 2013)

Tested on: K562
Assay: Cytotoxicity against human K562 cells after 72 hrs by MTT assay
Type: functional, cell-based
Details: K562, 72 h
Summary of the method: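 Parental human K562 leukaemia cells in exponential growth (3-5 × 10^5 cells/mL) seeded at 3000 cells/well. Compound alone, doxorubicin, or both added from 10^-2 M DMSO stocks diluted in complete medium. Incubated 72 h at 37 °C in 5% CO2, then MTT for 3 h. Formazan dissolved in DMSO, A540 read, IC50 versus untreated control taken from plots; quadruplicate cultures.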

## COc1cccc2c1C(=O)c1c(O)c3c(c(O)c1C2=O)C[C@@](O)(C(=O)CO)C[C@@H]3O[C@H]1C[C@H](N)[C@H](O)[C@H](C)O1 [DOXORUBICIN]
  IC50: 30 nM
